The target of the assay is GFP-tagged human Nup98ΔCTD (amino acids 1–504) (human) (UniProt P52948). As to the kind of experiment: co-IP; repeat of the GFP-Trap co-IP of GFP-Nup98ΔCTD from RAW 264.7 lysate; Western blot with antibodies against Wdr82, GFP, Rae1 and GAPDH; GFP alone as control.

Sequences of proteins named here, by UniProt entry; tags and fusion partners are left off. A change or cut given only in a name is not applied to a line headed by its entry. Residues count along the entry.
UniProt P52948, residues 1-504: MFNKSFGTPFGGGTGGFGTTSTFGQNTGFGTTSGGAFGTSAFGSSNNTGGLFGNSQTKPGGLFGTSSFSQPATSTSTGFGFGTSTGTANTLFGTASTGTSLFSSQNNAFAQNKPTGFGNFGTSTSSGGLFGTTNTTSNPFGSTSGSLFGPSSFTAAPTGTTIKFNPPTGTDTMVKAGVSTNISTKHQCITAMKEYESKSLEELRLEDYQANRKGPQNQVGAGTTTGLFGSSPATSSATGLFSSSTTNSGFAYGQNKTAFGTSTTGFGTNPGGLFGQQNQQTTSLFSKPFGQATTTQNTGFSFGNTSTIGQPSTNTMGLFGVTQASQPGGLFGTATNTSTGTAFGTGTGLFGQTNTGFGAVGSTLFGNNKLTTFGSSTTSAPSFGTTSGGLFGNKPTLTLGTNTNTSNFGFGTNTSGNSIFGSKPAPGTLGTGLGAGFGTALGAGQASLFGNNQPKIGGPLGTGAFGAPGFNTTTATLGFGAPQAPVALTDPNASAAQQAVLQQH
UniProt Q8BFQ4: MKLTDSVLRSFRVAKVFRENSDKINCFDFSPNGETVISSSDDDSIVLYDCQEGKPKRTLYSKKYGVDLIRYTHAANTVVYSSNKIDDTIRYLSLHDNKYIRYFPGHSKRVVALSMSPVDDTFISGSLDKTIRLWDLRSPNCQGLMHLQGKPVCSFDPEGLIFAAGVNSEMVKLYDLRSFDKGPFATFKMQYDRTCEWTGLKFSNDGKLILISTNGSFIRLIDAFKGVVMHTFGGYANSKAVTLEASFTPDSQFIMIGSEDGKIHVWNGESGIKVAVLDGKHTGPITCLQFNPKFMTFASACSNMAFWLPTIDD

Results are given in words; binding and its absence hold for the method and conditions named. Binding seen in cells or lysates may run through a third protein. Some entries that bind do so weakly or less than the wild type.

For Wdr82 (from UniProt Q8BFQ4 1-313), the binding result was “binds”.

B1: Rae1 (protein, UniProt Q8C570 1-368)
chain: MSLFGSTSGFGTGGTSMFGSTTTDNHNPMKDIEVTSSPDDSIGCLSFSPPTLPGNFLIAGSWANDVRCWEVQDSGQTIPKAQQMHTGPVLDVCWSDDGSKVFTASCDKTAKMWDLNSNQAIQIAQHDAPVKTIHWIKAPNYSCVMTGSWDKTLKFWDTRSSNPMMVLQLPERCYCADVIYPMAVVATAERGLIVYQLENQPSEFRRIESPLKHQHRCVAIFKDKQNKPTGFALGSIEGRVAIHYINPPNPAKDNFTFKCHRSNGTNTSAPQDIYAVNGIAFHPVHGTLATVGSDGRFSFWDKDARTKLKTSEQLDQPIAACCFNHNGNIFAYASSYDWSKGHEFYNPQKKNYIFLRNAAEELKPRNKK
Take B1: the binding result is “binds”.

The record behind these values is publication PMC5769767.
